Measurements: article PMC6204060
No constants are given. Whether binding was seen depends on the method and setting. Tags and fused reporters may be left off the sequences shown.

Target: T1, BD-AtBI-1 (full-length Arabidopsis Bax inhibitor-1 in pGBKT7) (Arabidopsis (Arabidopsis thaliana)) (UniProt Q9LD45)
T1 sequence: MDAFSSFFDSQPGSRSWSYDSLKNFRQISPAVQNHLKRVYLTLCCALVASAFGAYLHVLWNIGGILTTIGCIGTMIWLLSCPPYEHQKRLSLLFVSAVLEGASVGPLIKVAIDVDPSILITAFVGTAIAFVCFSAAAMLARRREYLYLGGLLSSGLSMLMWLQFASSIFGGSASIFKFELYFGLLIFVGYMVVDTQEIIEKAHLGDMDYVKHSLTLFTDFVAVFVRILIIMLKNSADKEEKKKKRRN
Test: two-hybrid; pairs of BD (pGBKT7) and AD (pGADT7) fusions coexpressed in AH109 yeast cells; selected on SD/-Trp-Leu-His-Ade or SD/-Trp-Leu-His-Ade/X-alpha-gal medium for 5 days

Substance: AD-ROF1-TPR (TPR region of ROF1 in pGADT7) (Arabidopsis (Arabidopsis thaliana)) (domain or fragment)
- binding: no binding
